{"source": "patent US20240344040A1", "about": "“PROKARYOTIC AND EUKARYOTIC CELLS WITH BIOSYNTHESIZED SULFOTYROSINE FOR GENETIC INCORPORATION” (William Marsh Rice University, priority 2023, published 2024)", "test_system": "ΔcysH BW25113 cells", "experiment": "E. coli intracellular sulfotyrosine concentration measurement (LC-MS)", "type": "cell-based, Escherichia coli"}
{"smiles": "O=C(O)[C@H](Cc1ccc(O)cc1)NS(=O)(=O)O", "note": "[sulfotyrosine]", "values": [{"measurement": "cellular concentration of sulfotyrosine, fold higher than cells exogenously fed with 1 mM sulfotyrosine", "setting": "biosynthetic pathway vs 1 mM exogenous feeding", "value": 28, "unit": "fold"}, {"measurement": "cellular concentration of sulfotyrosine", "setting": "cells endowed with the sulfotyrosine biosynthetic pathway, no exogenous feeding", "value": 756.3, "unit": "µM"}]}
